Source: publication PMC8541776
These are yes or no findings as the source states them, for the method shown. For part of these data: Binding seen in cells or lysates may run through a third protein. Some entries that bind do so weakly or less than the wild type. Where a sequence is shown, tags or fusion partners need not be part of it.

Columns and labels:
[1] = molecular target: T1, OSH1 (class I KNOX protein) fused to the GAL4 binding domain (rice (Oryza sativa)) (UniProt P46609); experiment: two-hybrid; GAL4 system in S. cerevisiae AH109; KNOX class 1 proteins (and truncated OSH1) on pGBKT7 (BD), SLR1 (full length and truncated) on pGADT7 (AD); selection on SD/-Trp/-Leu/-His/-Ade
T1 sequence: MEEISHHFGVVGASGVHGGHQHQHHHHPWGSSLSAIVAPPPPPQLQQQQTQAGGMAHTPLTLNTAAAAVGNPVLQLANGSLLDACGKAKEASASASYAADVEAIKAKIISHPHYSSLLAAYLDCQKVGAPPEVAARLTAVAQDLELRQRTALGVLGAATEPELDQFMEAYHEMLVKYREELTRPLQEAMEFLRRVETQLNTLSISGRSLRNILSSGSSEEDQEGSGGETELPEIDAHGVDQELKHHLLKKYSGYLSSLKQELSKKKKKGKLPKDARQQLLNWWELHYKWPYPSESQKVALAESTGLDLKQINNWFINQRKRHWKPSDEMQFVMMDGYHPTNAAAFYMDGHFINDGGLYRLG

[2] = molecular target: T2, OSH6 (class I KNOX protein) fused to the GAL4 binding domain (rice (Oryza sativa)) (UniProt Q9FP29); experiment: as above
T2 sequence: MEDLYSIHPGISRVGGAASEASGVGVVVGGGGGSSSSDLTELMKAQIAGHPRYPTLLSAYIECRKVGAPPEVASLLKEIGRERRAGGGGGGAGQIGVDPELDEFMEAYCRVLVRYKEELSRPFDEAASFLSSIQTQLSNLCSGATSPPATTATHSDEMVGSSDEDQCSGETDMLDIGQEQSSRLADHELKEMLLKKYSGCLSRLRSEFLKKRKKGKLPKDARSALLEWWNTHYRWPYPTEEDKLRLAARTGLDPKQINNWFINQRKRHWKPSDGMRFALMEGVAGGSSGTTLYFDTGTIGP

[3] = molecular target: T3, OSH15 (class I KNOX protein) fused to the GAL4 binding domain (rice (Oryza sativa)) (UniProt O80416); experiment: as above
T3 sequence: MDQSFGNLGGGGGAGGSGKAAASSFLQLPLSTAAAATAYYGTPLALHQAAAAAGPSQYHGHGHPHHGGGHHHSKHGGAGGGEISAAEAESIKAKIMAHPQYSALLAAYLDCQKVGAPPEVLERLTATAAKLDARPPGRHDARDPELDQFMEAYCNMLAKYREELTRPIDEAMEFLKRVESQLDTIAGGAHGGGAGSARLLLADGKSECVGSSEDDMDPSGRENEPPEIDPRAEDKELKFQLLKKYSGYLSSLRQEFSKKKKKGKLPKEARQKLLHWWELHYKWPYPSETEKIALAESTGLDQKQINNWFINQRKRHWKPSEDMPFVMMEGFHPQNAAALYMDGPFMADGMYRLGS

[4] = molecular target: T4, OSH71 (class I KNOX protein) fused to the GAL4 binding domain (rice (Oryza sativa)) (UniProt Q7GDL5); experiment: as above
T4 sequence: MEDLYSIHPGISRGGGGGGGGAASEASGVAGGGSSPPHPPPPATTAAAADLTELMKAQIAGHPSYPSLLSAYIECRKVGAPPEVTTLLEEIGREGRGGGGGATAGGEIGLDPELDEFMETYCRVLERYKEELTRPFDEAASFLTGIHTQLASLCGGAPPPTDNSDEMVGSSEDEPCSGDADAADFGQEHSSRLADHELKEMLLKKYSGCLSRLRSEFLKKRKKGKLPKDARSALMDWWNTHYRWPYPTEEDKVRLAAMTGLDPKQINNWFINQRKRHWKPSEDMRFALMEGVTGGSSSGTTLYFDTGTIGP

[5] = molecular target: T5, OSH6 fused to the N-terminal region of YFP (nYFP) (rice (Oryza sativa)) (UniProt Q9FP29); experiment: split reporter; BiFC: SLR1-cYFP and KNOX-nYFP co-infiltrated by Agrobacterium GV3101 into N. benthamiana leaves; YFP read by confocal microscopy after 48 h
T5 sequence: T2 sequence

[6] = molecular target: T6, OSH71 fused to the N-terminal region of YFP (nYFP) (rice (Oryza sativa)) (UniProt Q7GDL5); experiment: as above
T6 sequence: T4 sequence

[7] = molecular target: T7, OSH15 fused to the N-terminal region of YFP (nYFP) (rice (Oryza sativa)) (UniProt O80416); experiment: as above
T7 sequence: T3 sequence

[8] = molecular target: T8, OSH1 fused to the N-terminal region of YFP (nYFP) (rice (Oryza sativa)) (UniProt P46609); experiment: as above
T8 sequence: T1 sequence

[9] = molecular target: T9, OSH1 fused to the N-terminal luciferase domain (nLuc) (rice (Oryza sativa), Nipponbare) (UniProt P46609); experiment: split reporter; split-luciferase: KNOX class 1 proteins with nLuc, SLR1 with cLuc, in tobacco leaves by Agrobacterium; CCD imaging after 36 h in the dark
T9 sequence: T1 sequence

[10] = molecular target: T10, OSH15 fused to the N-terminal luciferase domain (nLuc) (rice (Oryza sativa), Nipponbare) (UniProt O80416); experiment: as above
T10 sequence: T3 sequence

[11] = molecular target: T11, OSH6 fused to the N-terminal luciferase domain (nLuc) (rice (Oryza sativa), Nipponbare) (UniProt Q9FP29); experiment: as above
T11 sequence: T2 sequence

[12] = molecular target: T12, OSH71 fused to the N-terminal luciferase domain (nLuc) (rice (Oryza sativa), Nipponbare) (UniProt Q7GDL5); experiment: as above
T12 sequence: T4 sequence

Measured: binding

B1: SLR1 (SLENDER RICE 1, DELLA protein) fused to the GAL4 activation domain (protein, UniProt Q7G7J6 1-625)
chain: MKREYQEAGGSSGGGSSADMGSCKDKVMAGAAGEEEDVDELLAALGYKVRSSDMADVAQKLEQLEMAMGMGGVSAPGAADDGFVSHLATDTVHYNPSDLSSWVESMLSELNAPLPPIPPAPPAARHASTSSTVTGGGGSGFFELPAAADSSSSTYALRPISLPVVATADPSAADSARDTKRMRTGGGSTSSSSSSSSSLGGGASRGSVVEAAPPATQGAAAANAPAVPVVVVDTQEAGIRLVHALLACAEAVQQENFAAAEALVKQIPTLAASQGGAMRKVAAYFGEALARRVYRFRPADSTLLDAAFADLLHAHFYESCPYLKFAHFTANQAILEAFAGCHRVHVVDFGIKQGMQWPALLQALALRPGGPPSFRLTGVGPPQPDETDALQQVGWKLAQFAHTIRVDFQYRGLVAATLADLEPFMLQPEGEADANEEPEVIAVNSVFELHRLLAQPGALEKVLGTVHAVRPRIVTVVEQEANHNSGSFLDRFTESLHYYSTMFDSLEGGSSGQAELSPPAAGGGGGTDQVMSEVYLGRQICNVVACEGAERTERHETLGQWRNRLGRAGFEPVHLGSNAYKQASTLLALFAGGDGYRVEEKEGCLTLGWHTRPLIATSAWRVAAA
binds: [1] | [2] | [3] | [4]

B2: SLR1 fused to the C-terminal region of YFP (SLR1-cYFP) (protein, UniProt Q7G7J6 1-625)
chain: B1 chain
binds: [5] | [6] | [7] | [8]

B3: SLR1 fused to the C-terminal luciferase domain (cLuc) (protein, UniProt Q7G7J6 1-625)
chain: B1 chain
binds: [9] | [10] | [11] | [12]
